{"source": "paper PMC12716008", "about": "(Chemistry & Biodiversity, 2025)", "key": {"[1]": {"system": "M. smegmatis biofilm formation", "assay": "Mycobacterial biofilm inhibition, microtitre antibiofilm assay (MBIC)", "assay_type": "cell-based, Mycobacterium smegmatis", "conditions": "biofilm selective index"}, "[2]": {"system": "MRSA AH1263 or LAC biofilm formation", "assay": "Staphylococcal biofilm inhibition, crystal violet microtitre test (MBIC)", "assay_type": "cell-based, Staphylococcus aureus", "conditions": "biofilm selective index"}, "[3]": {"system": "methicillin‐resistant S. aureus (MRSA) AH1263 or LAC", "assay": "Antistaphylococcal activity, broth microdilution (MIC)", "assay_type": "cell-based, Staphylococcus aureus", "conditions": "resistant (MRSA) versus susceptible (MSSA) strain, from MIC"}, "[4]": {"system": "human monocyte (U937) cell line", "assay": "Cytotoxicity, Presto Blue cell viability", "assay_type": "cell-based", "conditions": "selective index, IC50 (U937)/MIC against Mycobacterium smegmatis", "procedure": "(§1) The human monocyte (U937) and African green monkey kidney (Vero) cell lines were used in this study to determine the cytotoxic potential of the quinoline derivatives. The cell lines were purchased from Separation Scientific SA (Pty) Ltd. (Johannesburg, South Africa) and maintained in Roswell Park Memorial Institute (RPMI) 1640 and Eagle's Minimal Essential Medium (EMEM), supplemented with 10% heat‐inactivated foetal bovine serum (FBS), 1% antibiotics (100 U/mL penicillin and 100 µg/mL streptomycin) and 1% antifungal agent (250 µg/mL amphotericin B) as previously described. The cells were cultured at 37°C, 5% CO2 in a humidified incubator to 80% confluency. Detachment was achieved by rinsing the cells with phosphate buffer saline followed by the addition of trypsin–EDTA (0.25% trypsin containing 0.01% EDTA). After 5 min, the reaction was inhibited through the addition of supplemented media.\n(§2) Cell viability was assessed through the method described by Lall et al., using Presto Blue as the viability reagent. The cells were seeded in a flat‐bottom 96‐well plate (100 µL) at a concentration of 1.0 × 10^6 cells/mL and allowed to adhere for 24 h. The samples were prepared in DMSO at a stock concentration of 20 mM, serially diluted in complete media and added to the plate at a final concentration range of 0.78–100 µM. Controls included a vehicle control (2% DMSO), an untreated cell control, a 0% control (no cells) and actinomycin D, as the positive control, at a final test concentration range of 3.9 × 10^−4 to 0.05 µg/mL. Cells were incubated for 72 h, followed by the addition of 20 µL of Presto Blue reagent to all the wells and an additional 2 h incubation. Cell viability was measured using a VICTOR Nivo Multimode Microplate Reader (PerkinElmer) at an excitation/emission wavelength of 540/590 nm.\n(§3) All results are presented as the mean ± standard deviation (where applicable) of experiments done in triplicate and in two or three independent experiments (as stated in each methods section). Descriptive analysis was used to directly compare and rank the compounds and derivatives based on their activity in the biological assays. Additionally, by comparing the antibiofilm activity to the antibacterial activity and the antibacterial activity to the cytotoxicity, selectivity indices were used to assess the preferential activity of the compounds."}, "[5]": {"system": "African green monkey kidney (Vero) cell line", "assay": "Cytotoxicity, Presto Blue cell viability", "assay_type": "cell-based", "conditions": "selective index, IC50 (Vero)/MIC against Mycobacterium smegmatis", "procedure": "as §1, §2, §3"}}, "data": [{"smiles": "O=C(O)c1cn(C2CC2)c2cc(N3CCNCC3)c(F)cc2c1=O", "note": "[Ciprofloxacin, reference compound]", "values": [{"measurement": "M. smeg BSI (MIC/MBIC)", "setting": "[1]", "result": 2}]}, {"smiles": "Oc1cccc2cccnc12", "note": "[HQ‐1, 8‐hydroxyquinoline, reference compound]", "values": [{"measurement": "MRSA BSI (MIC/MBIC)", "setting": "[2]", "result": 1}, {"measurement": "fold increase in antibacterial activity against MRSA", "setting": "[3]", "result": 2, "unit": "fold"}, {"measurement": "M. smeg BSI (MIC/MBIC)", "setting": "[1]", "result": 1}, {"measurement": "U937 SI", "setting": "[4]", "result": 10.5}, {"measurement": "Vero SI", "setting": "[5]", "result": 15.3}]}, {"smiles": "Cc1ccc2c(Cl)cc(Cl)c(O)c2n1", "note": "[HQ‐2, 5,7‐dichloro‐8‐hydroxy‐2‐methylquinoline, reference compound]", "values": [{"measurement": "MRSA BSI (MIC/MBIC)", "setting": "[2]", "result": 0.03}, {"measurement": "fold increase in antibacterial activity against MRSA", "setting": "[3]", "result": 2, "unit": "fold"}, {"measurement": "M. smeg BSI (MIC/MBIC)", "setting": "[1]", "result": 0.5}, {"measurement": "U937 SI", "setting": "[4]", "result": 1.7}, {"measurement": "Vero SI", "setting": "[5]", "result": 53.1}]}, {"smiles": "Cc1ccc2cccc(O)c2n1", "note": "[HQ‐3, 2‐methyl‐8‐hydroxyquinoline, reference compound]", "values": [{"measurement": "MRSA BSI (MIC/MBIC)", "setting": "[2]", "result": 0.5}, {"measurement": "M. smeg BSI (MIC/MBIC)", "setting": "[1]", "result": 1}]}, {"smiles": "O=Cc1ccc2cccc(O)c2n1", "note": "[HQ‐4, 8‐hydroxyquinoline‐2‐carbaldehyde, reference compound]", "values": [{"measurement": "MRSA BSI (MIC/MBIC)", "setting": "[2]", "result": 0.5}, {"measurement": "fold increase in antibacterial activity against MRSA", "setting": "[3]", "result": 2, "unit": "fold"}, {"measurement": "U937 SI", "setting": "[4]", "result": 0.05}]}, {"smiles": "CCCCCOc1cccc2cccnc12", "note": "[QD‐1]", "values": [{"measurement": "MRSA BSI (MIC/MBIC)", "setting": "[2]", "result": 1}]}, {"smiles": "CC(C)CCOc1cccc2cccnc12", "note": "[QD‐2]", "values": [{"measurement": "MRSA BSI (MIC/MBIC)", "setting": "[2]", "result": 1}]}, {"smiles": "CC(C)=CCOc1cccc2cccnc12", "note": "[QD‐3]", "values": [{"measurement": "MRSA BSI (MIC/MBIC)", "setting": "[2]", "result": 0.5}, {"measurement": "M. smeg BSI (MIC/MBIC)", "setting": "[1]", "result": 1}, {"measurement": "U937 SI", "setting": "[4]", "result": 0.8}]}, {"smiles": "Cc1ccc2cccc(OCCC(C)C)c2n1", "note": "[QD‐8]", "values": [{"measurement": "M. smeg BSI (MIC/MBIC)", "setting": "[1]", "result": 1}]}, {"smiles": "CCCCCOC(=O)c1ccc2cccc(OCCCCC)c2n1", "note": "[QD‐10, pentyl 8‐(pentyloxy)quinoline‐2‐carboxylate]", "values": [{"measurement": "U937 SI", "setting": "[4]", "result": 0.7}, {"measurement": "Vero SI", "setting": "[5]", "result": 0.8}]}, {"smiles": "CC(C)CCOC(=O)c1ccc2cccc(OCCC(C)C)c2n1", "note": "[QD‐11, isopentyl 8‐(isopentyloxy)quinoline‐2‐carboxylate]", "values": [{"measurement": "Vero SI", "setting": "[5]", "result": 0.7}]}, {"smiles": "CC(C)=CCOc1cccc2ccc(C=O)nc12", "note": "[QD‐12]", "values": [{"measurement": "MRSA BSI (MIC/MBIC)", "setting": "[2]", "result": 0.5}, {"measurement": "fold increase in antibacterial activity against MRSA", "setting": "[3]", "result": "up to 2 fold"}, {"measurement": "M. smeg BSI (MIC/MBIC)", "setting": "[1]", "result": "~8"}, {"measurement": "U937 SI", "setting": "[4]", "result": 1}, {"measurement": "Vero SI", "setting": "[5]", "result": 1}]}]}
